Our source for the binding values is US20180303952A1.

Amino acid sequences for entries named in this document (tags omitted). A change or cut given only in a name is not applied to a line headed by its entry. Residues count along the entry.
UniProt P35613, residues 141-321: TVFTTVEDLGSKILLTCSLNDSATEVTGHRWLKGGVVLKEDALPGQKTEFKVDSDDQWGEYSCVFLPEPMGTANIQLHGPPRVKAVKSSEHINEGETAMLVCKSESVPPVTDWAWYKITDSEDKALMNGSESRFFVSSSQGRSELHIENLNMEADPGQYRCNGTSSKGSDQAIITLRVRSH

The test concerns the target recombinant human CD147-Fc chimeric protein (glycosylated) (human) (UniProt P35613). The test can be described thus: ELISA on adsorbed CD147-Fc.

No constants are given. Whether binding was seen depends on the method and setting. Some entries that bind do so weakly or less than the wild type.

B1: humanized anti-human CD147 monoclonal antibody hu 3A11 Lc1/Hc1 (antibody, V domains shown)
VH: EVQLVESGGGLVQPGGSLRLSCAASGFTFSNYWMDWVRQAPGKGLEWVGEIRLKSYNYATHYAASVKGRFTISRDDSKNSVYLQMNSLKTEDTAVYYCTAAGTDYWGQGTLVTVSS
VL: DIQMTQSPSSLSASVGDRVTITCRASQSVRTDVGWYQQKPGKAPKLLIYYSSNRYTGVPSRFSGSGSGTDFTLTISSLQPEDFATYYCQQDYSSPYTFGQGTKLEIK
Regarding B1, the binding result is on record as “binds”.
